Source: PubChem BioAssay AID686943 (Drosophila RNAi Screening Center, 2013)
The deposit covers about 23,000 reagents; this is an unselected part of those that have a named target and a result. 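Extra replicates exist only for a retested subset of genes; insulin dose and duration not given; both raised and lowered dpERK matter.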 Further read-outs or replicates are left out here. No sequences are given here. Not stated in the record: the amount of reagent, the time to read-out.

Purpose: 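Fly genes whose loss alters ERK activation after insulin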 (primary screen)
System: Drosophila S2R+ haemocyte-like cells expressing YFP-tagged ERK (Rolled)
Knock-down reagent: long dsRNA against Drosophila genes
Challenge: insulin stimulation versus unstimulated cells; dose and duration not given
Read-out: 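Per-plate z-scores of phospho-ERK immunostaining normalised to YFP-tagged ERK, measured with and without insulin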
Reading the numbers: replicate 1, z-score of dpERK with insulin and replicate 2, z-score of dpERK with insulin: higher = more active ERK per ERK-YFP after insulin

| target | dsRNA | replicate 1, z-score of dpERK with insulin | replicate 2, z-score of dpERK with insulin |
| --- | --- | --- | --- |
| CG43366 | DRSC04857 | -0.01 | 0.23 |
| CG43366 | DRSC04864 | -0.38 | 0.81 |
| DIP-gamma | DRSC14873 | -0.49 | 0.35 |
| CG13928 | DRSC08397 | -1.61 | -0.12 |
| Hn | DRSC11184 | 0.02 | -0.07 |
| Polr2J | DRSC02995 | -0.49 | 0.3 |
| Nnf1b | DRSC22080 | -0.56 | -1.94 |
| nub | DRSC01260 | 1.15 | 0.51 |
| nub | DRSC02498 | 0.27 | 0.18 |
| nub | DRSC02499 | 0.23 | -0.82 |
| nub | DRSC03583 | 0.19 | 0.23 |
| CG10584 | DRSC11624 | 0.27 | -0.09 |
| CG14696 | DRSC14919 | -0.25 | -0.98 |
| CG34238 | DRSC09040 | 1.2 | 0.44 |
| CG9030 | DRSC20139 | 0.48 | 1.16 |
| CG3803 | DRSC04420 | -0.22 | 0.73 |
| Efa6 | DRSC13569 | 0.19 | 0.41 |
| Efa6 | DRSC15312 | -0.41 | -2.66 |
| Efa6 | DRSC16141 | -0.15 | 1.55 |
| CG1354 | DRSC17902 | 0.79 | 0.52 |
| CG15571 | DRSC18059 | -0.1 | -0.56 |
| Ppt2 | DRSC02786 | -0.71 | -0.2 |
| vrs | DRSC15832 | 0.07 | 1.05 |
| CG1113 | DRSC12163 | -1.06 | 0.23 |
| CG6154 | DRSC15977 | -0.11 | -0.04 |
| Amt | DRSC16055 | 0.24 | -0.78 |
| eIF3d1 | DRSC16938 | -2.37 | 0 |
| CG13151 | DRSC06276 | 0.38 | 0.27 |
| CG13982 | DRSC02314 | 1.46 | 0.76 |
| CG14453 | DRSC11710 | -0.19 | 0.46 |
| CG31678 | DRSC02618 | 1.26 | -0.03 |
| CG31678 | DRSC02619 | 1.49 | 0.11 |
| mRpS29 | DRSC04398 | 0.21 | 1.14 |
| CIA30 | DRSC16266 | -0.07 | 0.28 |
| bcd | DRSC12624 | -0.28 | -0.05 |
| CG13760 | DRSC18617 | 0.17 | 0.7 |
| jhamt | DRSC01985 | -0.01 | -0.13 |
| CG8952 | DRSC20133 | 0.07 | 0.16 |
| X11Lbeta | DRSC18156 | -0.57 | 0.17 |
| X11Lbeta | DRSC18158 | -0.22 | 0.41 |

Reprinted from above, 2 entries:
| target | dsRNA | replicate 1, z-score of dpERK with insulin | replicate 2, z-score of dpERK with insulin |
| --- | --- | --- | --- |
| Efa6 | DRSC16141 | -0.15 | 1.55 |
| CG1354 | DRSC17902 | 0.79 | 0.52 |
